The values that follow come from paper PMC8498969, “An Integrated Systems Biology Approach Identifies the Proteasome as A Critical Host Machinery for ZIKV and DENV Replication” (Genomics, Proteomics & Bioinformatics, 2021).

Chains of the proteins cited; added tags and fusions are not shown. A line that says so, or that is headed by a name, gives the form on record, which may keep a tag or linker. Residues count along the entry.
FLAG-tagged ZIKV NS3 (Zika virus (strain not stated for this construct)) (Q32ZE1, residues 1499-2115): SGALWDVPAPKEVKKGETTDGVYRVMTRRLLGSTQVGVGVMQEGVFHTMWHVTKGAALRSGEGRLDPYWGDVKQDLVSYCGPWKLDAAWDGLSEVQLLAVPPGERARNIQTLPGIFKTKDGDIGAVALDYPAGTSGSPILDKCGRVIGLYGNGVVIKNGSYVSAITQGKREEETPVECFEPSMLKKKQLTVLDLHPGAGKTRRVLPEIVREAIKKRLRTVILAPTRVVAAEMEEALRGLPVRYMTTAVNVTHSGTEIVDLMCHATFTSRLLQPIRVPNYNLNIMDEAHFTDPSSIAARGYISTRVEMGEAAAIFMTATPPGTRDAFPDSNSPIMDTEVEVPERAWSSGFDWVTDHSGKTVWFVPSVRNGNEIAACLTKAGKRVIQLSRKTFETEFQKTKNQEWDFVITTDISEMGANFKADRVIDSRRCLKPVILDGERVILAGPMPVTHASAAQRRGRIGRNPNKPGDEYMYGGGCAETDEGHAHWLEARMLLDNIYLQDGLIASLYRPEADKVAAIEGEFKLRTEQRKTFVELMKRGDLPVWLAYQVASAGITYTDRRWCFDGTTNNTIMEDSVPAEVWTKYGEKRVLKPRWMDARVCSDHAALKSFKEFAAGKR
ZIKV-NS4A, N-terminal GST fusion, Cy5-labelled (Q32ZE1, residues 2116-2242): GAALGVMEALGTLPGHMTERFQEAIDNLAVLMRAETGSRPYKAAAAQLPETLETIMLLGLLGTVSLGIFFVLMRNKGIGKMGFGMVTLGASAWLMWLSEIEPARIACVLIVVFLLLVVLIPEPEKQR
UniProt P25788: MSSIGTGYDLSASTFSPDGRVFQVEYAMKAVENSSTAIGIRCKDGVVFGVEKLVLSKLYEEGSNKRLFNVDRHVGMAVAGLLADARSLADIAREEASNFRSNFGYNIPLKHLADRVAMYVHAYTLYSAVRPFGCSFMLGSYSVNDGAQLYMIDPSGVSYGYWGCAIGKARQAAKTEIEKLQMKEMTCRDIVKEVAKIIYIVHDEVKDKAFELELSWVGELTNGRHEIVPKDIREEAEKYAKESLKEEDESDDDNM

Test [1] addresses FLAG-tagged ZIKV NS3 (Zika virus (strain not stated for this construct)) (UniProt Q32ZE1). Briefly: co-IP; FLAG-tagged ZIKV protein and V5-tagged proteasome subunit overexpressed in HEK293FT; IP with anti-FLAG mAb magnetic beads at 4 °C overnight, six washes in lysis buffer, blot with anti-V5; mouse IgG beads as negative control.
The target in test [2] is T1, API5 on the HuProt array (human) (UniProt Q9BZZ5).
T1 sequence: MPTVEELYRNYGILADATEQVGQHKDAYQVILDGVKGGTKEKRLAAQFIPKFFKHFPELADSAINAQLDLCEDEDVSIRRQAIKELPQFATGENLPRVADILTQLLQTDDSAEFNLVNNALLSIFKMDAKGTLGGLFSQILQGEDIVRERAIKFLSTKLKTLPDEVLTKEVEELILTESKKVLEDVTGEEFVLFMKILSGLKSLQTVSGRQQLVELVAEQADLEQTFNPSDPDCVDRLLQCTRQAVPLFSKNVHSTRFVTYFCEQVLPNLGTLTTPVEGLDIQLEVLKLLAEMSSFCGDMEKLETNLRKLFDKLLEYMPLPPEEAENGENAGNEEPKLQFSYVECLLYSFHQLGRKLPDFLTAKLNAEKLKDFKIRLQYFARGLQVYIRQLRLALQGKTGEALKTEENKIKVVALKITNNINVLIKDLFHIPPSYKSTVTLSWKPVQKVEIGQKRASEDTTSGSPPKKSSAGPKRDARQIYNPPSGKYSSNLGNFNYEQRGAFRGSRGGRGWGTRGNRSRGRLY
Briefly: peptide or protein array; both purified.

These are yes or no findings as the source states them, for the method shown. For some assays here: In cells and extracts the contact can be indirect. Some results given as binding are weak or reduced against the parent protein; the word gives no strength.

With “V5-tagged human proteasome subunit PSMA3 (from UniProt P25788 1-255)”, in test [1], the binding result was “binds”.
For the substance “ZIKV-NS4A, N-terminal GST fusion, Cy5-labelled (from UniProt Q32ZE1 2116-2242)”, the binding entry in test [2] is reported as “binds”.
